In PubChem BioAssay AID1671190 (National Center for Advancing Translational Sciences (NCATS), 2021):
Among all 580,000 compounds or so, about 6,100 (1.1%) were called active. Inconclusive results, whose numbers are uncertain, are shown with a selection of clear calls. Calls come from the whole dose curve; as a rule, active = well fitted inhibition curve with a large enough effect; inconclusive = small, poorly fitted or top-dose-only effect, or another doubt; inactive = no such curve, though single readings can be large or run the other way. A potency beside an inconclusive call is a rough fit, not a confirmed value.

Chains of the proteins cited; added tags and fusions are not shown. Lines headed by an entry give the natural chain unless they say otherwise; changes in a name come on top.
UniProt P18054: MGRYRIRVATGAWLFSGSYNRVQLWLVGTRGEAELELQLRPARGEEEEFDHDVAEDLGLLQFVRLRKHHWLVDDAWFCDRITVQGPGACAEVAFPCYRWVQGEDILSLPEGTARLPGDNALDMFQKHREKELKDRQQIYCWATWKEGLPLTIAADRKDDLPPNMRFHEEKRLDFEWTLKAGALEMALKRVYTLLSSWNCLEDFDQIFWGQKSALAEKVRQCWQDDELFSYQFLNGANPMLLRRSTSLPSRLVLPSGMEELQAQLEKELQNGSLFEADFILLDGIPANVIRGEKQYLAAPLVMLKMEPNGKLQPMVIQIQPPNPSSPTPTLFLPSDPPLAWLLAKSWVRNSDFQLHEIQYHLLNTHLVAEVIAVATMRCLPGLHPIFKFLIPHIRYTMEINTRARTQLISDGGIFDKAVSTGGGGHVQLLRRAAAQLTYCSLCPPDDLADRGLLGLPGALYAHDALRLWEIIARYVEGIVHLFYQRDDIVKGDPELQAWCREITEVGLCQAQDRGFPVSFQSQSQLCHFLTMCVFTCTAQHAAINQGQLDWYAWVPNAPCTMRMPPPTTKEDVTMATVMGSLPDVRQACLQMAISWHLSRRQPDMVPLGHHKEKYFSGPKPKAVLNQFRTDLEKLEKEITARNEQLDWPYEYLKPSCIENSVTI

Target: Polyunsaturated fatty acid lipoxygenase ALOX12 (Homo sapiens) (UniProt P18054)
Assay: Primary qHTS assay for inhibitors of human arachidonate 12S-lipoxygenase (ALOX12): Round 2
Conditions: purified 12hLO, xylenol orange hydroperoxide absorbance; activity change, negative = inhibition: at 108 µM (top of the series) unless noted
In short: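 Purified human 12hLO at 150 nM in 25 mM Hepes, 0.01% Triton X-100, pH 7.0, preincubated 15 min at room temperature with compound. Reaction started with 40 uM arachidonic acid, 30 min at room temperature. Hydroperoxide measured by Fe-xylenol orange, 573/405 nm absorbance ratio.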
% is set by controls: 0 for no effect and ±100 for the full control effect; potency is the fitted concentration of half-maximal effect.

Compound | Potency | activity change, negative = inhibition
CCOc1cc(/C=C2/C(=N)N3C(=NC2=O)SN=C3S(=O)(=O)C(C)C)ccc1OC(=O)c1ccco1 | inconclusive: 35.5 µM [inhibitor, partial curve, poor fit] | –
Cc1cc(C(C)(C)C)ccc1OCCCCN1CCCC1 | inactive | –
Cc1cc(C)c2nc(N3C(=O)C(O)=C(C(=O)c4ccco4)C3c3ccc(O)cc3)sc2c1 (configuration not stated) | active: 25.1 µM | –
Fc1ccccc1NC(=S)NC1CCCC1 | inconclusive: 50.1 µM [inhibitor, partial curve, poor fit] | –
CN(C)S(=O)(=O)c1cccc2c1C(=O)c1ccccc1C2=O | inactive | –
CCN1C(=O)[C@H]2[C@@H](c3ccc(-c4cccc(Cl)c4)cc3)N[C@@](C)(C(=O)OC)[C@H]2C1=O | – | inconclusive: -31.8% [inhibitor]
Cc1c(CC(=O)N2CCC(O)CC2)c2c(n1Cc1ccccc1F)CCCC2=O | inconclusive: 79.4 µM [inhibitor, partial curve, poor fit] | –
COc1ccc(Cl)cc1-c1nc(SCC(=O)NC(C)(C#N)C(C)C)n[nH]1 (configuration not stated) | inactive | –
CC1CC(C)(C)NC(=S)N1CC(=O)NCc1ccc2c(c1)OCO2 (configuration not stated) | inconclusive: 50.1 µM [inhibitor, partial curve, poor fit] | –
COc1ccc(CN2C(=O)c3cccnc3C2Nc2cc(Cl)c(OC)cc2OC)cc1 (configuration not stated) | inconclusive: 50.1 µM [inhibitor, partial curve, poor fit] | –
S=c1[nH]nc(-c2ccco2)n1/N=C/C=C/c1ccco1 | inconclusive: 44.7 µM [inhibitor, partial curve, poor fit] | –
CCn1ncc(Br)c1C(=O)Nc1ccc(F)c([N+](=O)[O-])c1 | inactive | –
Cc1ccc(C(=O)NC(C2CC2)C2CC2)cc1 | inconclusive: 35.5 µM [inhibitor, single point] | –
O=C(Nc1nc(-c2ccccn2)cs1)c1ccc(Br)s1 | inactive | –
CC(C)C[C@H]1CN([C@@H](CC(C)C)CN2CCC[C@@H]2CN2C(=O)C(=O)NC[C@@H]2Cc2ccccc2)C(=O)C(=O)N1CC1CCCCC1 | inconclusive: 2.51 µM [inhibitor, full curve, poor fit] | –
CC1CCCCC1NCC(=O)NCc1ccc(F)cc1 (configuration not stated) | inconclusive: 0.398 µM [inhibitor, full curve, poor fit] | –
Cc1ccc(NC(=O)c2ncc(Cl)c(Cl)c2Cl)cc1C | inactive | –
CC(=O)NCc1ccc(-c2csc(Nc3cc(C)ccc3C)n2)o1 | inconclusive: 0.316 µM [inhibitor, full curve, poor fit] | –
O=C(Cc1ccsc1)Nc1cc(F)ccc1F | inactive | –
CCc1nnc2c3ccccc3nc(Nc3ccc(F)c(Cl)c3)n12 | inactive | –
CCOC(=O)/C(C#N)=C\C1=C(N2CCOCC2)C(=C/c2ccccc2)/CC1 | inactive | –

Record cards, from the list above. Order of values: Potency	activity change, negative = inhibition
Cc1c(CC(=O)N2CCC(O)CC2)c2c(n1Cc1ccccc1F)CCCC2=O is listed with inconclusive: 79.4 µM [inhibitor, partial curve, poor fit]	–
CCOc1cc(/C=C2/C(=N)N3C(=NC2=O)SN=C3S(=O)(=O)C(C)C)ccc1OC(=O)c1ccco1 is listed with inconclusive: 35.5 µM [inhibitor, partial curve, poor fit]	–
Cc1cc(C)c2nc(N3C(=O)C(O)=C(C(=O)c4ccco4)C3c3ccc(O)cc3)sc2c1 (configuration not stated) is listed with active: 25.1 µM	–

Next part:

Compound | Potency | activity change, negative = inhibition
Oc1ccccc1Oc1ccc2nnc(-c3ccccc3)n2n1 | inconclusive: 126 µM [inhibitor, single point] | –
O/N=C/c1ccc(Cl)cc1Cl | inconclusive: 70.8 µM [inhibitor, partial curve, poor fit] | –
COCCNC(=O)C1CCN(Cc2cccc(OCc3ccccc3)c2)CC1 | inconclusive: 0.562 µM [inhibitor, full curve] | –
Cc1cccc(N(C)C(=O)c2cc(S(=O)(=O)N3CCCCC3)c[nH]2)c1 | inconclusive: 141 µM [inhibitor, partial curve, poor fit] | –
O=C(Nc1ccc(Cl)cc1)c1cc2c(Cl)nc3ccccc3c2s1 | inconclusive: 3.98 µM [inhibitor, full curve, poor fit] | –
N#Cc1ccc(OCCOC(=O)c2cccc(Cl)c2)cc1 | inconclusive: 63.1 µM [inhibitor, partial curve, poor fit] | –
O=S(=O)(Nc1nc2ccccc2nc1N1CCCCCC1)c1ccccc1 | inconclusive: 100 µM [inhibitor, single point] | –
COc1cc(NC(=O)C/C(C)=N/NC(=O)C(=O)NCCO)c(OC)cc1Cl | inactive | –
COC(=O)C1=C(C)NC(C)=C([N+](=O)[O-])C1c1ccccc1C(F)(F)F (configuration not stated) | inconclusive: 126 µM [inhibitor, partial curve, poor fit] | –
CC(C(=O)N(C)Cc1cccc(F)c1)N1CCN(S(=O)(=O)c2ccc3c(c2)OCCCO3)CC1 (configuration not stated) | inconclusive: 70.8 µM [inhibitor, partial curve, poor fit] | –
COc1cc(C(=O)OCCCN2CCCN(CCCOC(=O)c3cc(OC)c(OC)c(OC)c3)CC2)cc(OC)c1OC | inconclusive: 28.2 µM [inhibitor, single point] | –
Nc1ccc(-c2nc3ncccc3o2)c(Cl)c1 | inconclusive: 31.6 µM [inhibitor, partial curve, poor fit] | –
CSc1ccc(Cl)c(C(=O)Nc2c(C)cc(C)cc2Cl)c1 | inconclusive: 112 µM [inhibitor, single point] | –
CCc1c(O)nc(SC2CC(=O)N(c3ccccc3)C2=O)[nH]c1=O (configuration not stated) | active: 10 µM | –
COc1ccc(S(=O)(=O)N(C)C[C@H]2Oc3ccc(NS(=O)(=O)c4cccs4)cc3C(=O)N([C@H](C)CO)C[C@@H]2C)cc1 | inconclusive: 44.7 µM [inhibitor, partial curve, poor fit] | –
CC(=O)NS(=O)(=O)c1ccc(Nc2ccc([N+](=O)[O-])c3nonc23)cc1 | inactive | –
Oc1c(Cl)cc(Cl)c2c1NCCC2 | inconclusive: 17.8 µM [inhibitor, partial curve, poor fit] | –
c1ccc(-c2nc3ccccc3[nH]2)cc1 | inactive | –
COC(=O)C1CCN(Cc2cc(=O)oc3ccc(Cl)cc23)CC1 | active: 15.8 µM | –
CCc1ccc(C(=O)OCC(=O)NC2CCCC2)cc1 | inconclusive: 126 µM [inhibitor, single point] | –
COCCNC(=O)NC(=O)COC(=O)Cc1ccc2c(c1)OCCO2 | inconclusive: 112 µM [inhibitor, single point] | –

Compound | Potency | activity change, negative = inhibition
Cc1ccc(C)n1C1C(=O)N(Cc2ccc(C(F)(F)F)cc2)c2ccccc21 (configuration not stated) | inconclusive: 39.8 µM [inhibitor, partial curve, poor fit] | –
CCN(Cc1ccccc1)C(=O)CN1C(=O)CSc2ccc(S(=O)(=O)N(CC)CC)cc21 | inconclusive: 50.1 µM [inhibitor, partial curve, poor fit] | –
CCCN(Cc1nnc(-c2ccccc2Cl)o1)C(=O)c1cc([N+](=O)[O-])cc([N+](=O)[O-])c1 | inconclusive: 112 µM [inhibitor, partial curve, poor fit] | –
O=[N+]([O-])c1ccc2nc(NS(=O)(=O)c3ccc(Cl)cc3)sc2c1 | inconclusive: 7.08 µM [inhibitor, full curve, poor fit] | –
Cc1ccc(/C=C/C(=O)OCC(=O)NCc2cccs2)o1 | inconclusive: 50.1 µM [inhibitor, full curve, poor fit] | –
O=C(NCC(c1ccco1)N1CCc2ccccc21)C(=O)Nc1ccc(F)cc1F (configuration not stated) | inconclusive: 31.6 µM [inhibitor, partial curve, poor fit] | –
CN(c1ccccc1)C1CNC1 | inconclusive: 7.58 µM [inhibitor, single point] | –
Cc1ccc(S(=O)(=O)NCC(=O)N2CCc3ccccc3C2)cc1 | inconclusive: 39.8 µM [inhibitor, partial curve, poor fit] | –
Cc1cc(C)c2c(n1)SCC(=O)N2CC(=O)Nc1cccc(C)c1C | inconclusive: 56.2 µM [inhibitor, full curve, poor fit] | –
Cc1cccc(OCC2(CNC3CCN(C)CC3)C[C@@H](O)[C@@H](O)C2)n1 (some centres not stated) | inactive | –
CC(NCc1cn(CCC(N)=O)c2ccccc12)c1ccccc1-n1cccn1 (configuration not stated) | inconclusive: 89.1 µM [inhibitor, partial curve, poor fit] | –
CC1(C)Cc2ccccc2/C(=C/C(=O)Nc2ccc(Cl)cc2)N1 | inconclusive: 25.1 µM [inhibitor, partial curve, poor fit] | –
Cn1cnc2c1c(=O)n(CC(=O)NCc1ccccc1Cl)c(=O)n2C | inconclusive: 12.6 µM [inhibitor, full curve, poor fit] | –
C#CCOCCOCCOCCNc1nc(N2CCOCC2)nc(N2CCN(C(=O)CCCCCCCCCCNC(=O)[C@H]([C@@H](C)CC)n3cc(CCCCN=C(N)N)nn3)CC2)n1 | inconclusive: 70.8 µM [inhibitor, partial curve, poor fit] | –
COc1ccc(CNc2ncnc3c2CN(C2CCNCC2)C(=O)CN3C)cc1 | inconclusive: 8.91 µM [inhibitor, partial curve, poor fit] | –
CN1CCC(N(C)CC(=O)Nc2ccc3c(c2)OC(F)(F)O3)CC1 | inconclusive: 1 µM [inhibitor, full curve, poor fit] | –
COc1ccc2nc3cc(Cl)ccc3c(Nc3cc(C(C)C)c(O)cc3C)c2c1 | inconclusive: 112 µM [inhibitor, single point] | –
O=C1C(c2ccccc2)=S=C2c3ccccc3-c3ccccc3N12 | inconclusive: 39.8 µM [inhibitor, partial curve, poor fit] | –
CCc1ccc2c(c1)c(=O)c(C(=O)c1ccccc1)cn2CC(=O)Nc1ccc(C)c(Cl)c1 | inconclusive: 126 µM [inhibitor, partial curve, poor fit] | –
Cc1ccc(NC(=O)Cn2c(=O)n(-c3ccc(F)cc3)c(=O)c3c2cc(C)n3C)c(C)c1 | inconclusive: 79.4 µM [inhibitor, single point] | –
